Three molecules from paper PMC4754350 can be followed below.

Protein sequences, listed by entry. Tags and fused reporters are not part of them.
UniProt Q9NRC8: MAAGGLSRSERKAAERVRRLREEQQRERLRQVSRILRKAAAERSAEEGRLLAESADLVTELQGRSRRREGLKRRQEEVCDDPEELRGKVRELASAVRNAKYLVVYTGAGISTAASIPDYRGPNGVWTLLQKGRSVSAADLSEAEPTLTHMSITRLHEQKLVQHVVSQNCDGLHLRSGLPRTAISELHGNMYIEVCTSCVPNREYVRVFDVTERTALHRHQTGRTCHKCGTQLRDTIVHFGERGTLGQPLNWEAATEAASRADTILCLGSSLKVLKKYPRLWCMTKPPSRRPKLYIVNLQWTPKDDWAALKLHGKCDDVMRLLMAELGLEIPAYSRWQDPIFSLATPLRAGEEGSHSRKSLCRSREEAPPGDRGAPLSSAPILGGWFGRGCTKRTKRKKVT
UniProt Q8N6T7: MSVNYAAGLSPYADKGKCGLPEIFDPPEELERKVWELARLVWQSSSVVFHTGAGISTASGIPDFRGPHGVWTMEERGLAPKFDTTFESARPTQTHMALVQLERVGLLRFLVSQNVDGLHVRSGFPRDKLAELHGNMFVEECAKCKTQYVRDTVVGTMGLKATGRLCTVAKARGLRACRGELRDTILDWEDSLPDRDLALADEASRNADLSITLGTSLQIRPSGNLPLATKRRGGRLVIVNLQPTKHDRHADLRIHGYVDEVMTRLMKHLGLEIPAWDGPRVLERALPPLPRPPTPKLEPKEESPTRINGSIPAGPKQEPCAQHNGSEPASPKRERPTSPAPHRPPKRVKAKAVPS

No constants are given. Whether binding was seen depends on the method and setting. Binding seen in cells or lysates may run through a third protein. Some entries that bind do so weakly or less than the wild type. For part of these data: Tags and fused reporters may be left off the sequences shown.

Assay [1] deals with T1, Flag-U3-55k (human) (UniProt O43818).
T1 sequence: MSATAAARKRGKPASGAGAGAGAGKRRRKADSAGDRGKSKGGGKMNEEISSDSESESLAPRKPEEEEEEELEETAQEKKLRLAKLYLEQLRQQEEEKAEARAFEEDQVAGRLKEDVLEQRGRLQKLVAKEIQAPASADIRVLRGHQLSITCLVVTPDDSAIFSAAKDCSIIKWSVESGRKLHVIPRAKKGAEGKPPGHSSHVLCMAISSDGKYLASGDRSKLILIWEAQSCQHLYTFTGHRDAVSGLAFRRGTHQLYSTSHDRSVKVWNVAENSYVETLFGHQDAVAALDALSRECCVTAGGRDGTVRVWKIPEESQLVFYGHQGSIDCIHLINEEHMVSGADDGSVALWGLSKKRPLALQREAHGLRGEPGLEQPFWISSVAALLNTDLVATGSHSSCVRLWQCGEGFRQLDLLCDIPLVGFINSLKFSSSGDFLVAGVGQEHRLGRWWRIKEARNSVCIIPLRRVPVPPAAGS
The experiment in a line: co-IP; lysates from HEK293T cells co-expressing Flag-U3-55k and GFP-tagged sirtuins, anti-Flag antibody, western blot with anti-GFP; lysis in 20 mM Tris-HCl pH 7.9, 0.1% NP-40, 150 mM KCl, 5 mM MgCl2.

Assay [2] has as its target endogenous SIRT7 (UniProt Q9NRC8). The experiment in a line: co-IP; endogenous SIRT7 immunoprecipitated with 5 ug anti-SIRT7 antibodies, co-precipitated endogenous U3-55k detected with anti-U3-55k antibodies.

Turning to “GFP-SIRT7 (green fluorescent protein-human sirtuin 7) (from UniProt Q9NRC8 1-400) (enzyme)”, the binding entry in assay [1] is recorded as “binds”. On the same count and under the same terms, the same measure for “GFP-tagged SIRT6 (from UniProt Q8N6T7 1-355) (enzyme)”: “no binding”.

B1: endogenous U3-55k (protein, UniProt O43818 1-475)
chain: T1 sequence
As to B1, the binding entry in assay [2] is listed as “binds”.
